# Experimental data: US20040156854A1, “Methods for the identification, assessment, and treatment of patients with proteasome inhibition therapy” (priority 2002, published 2004)
# Type: in vivo, human
# Settings: 1.3 mg/m2 twice weekly; of the 78 patients
# Description: A multicenter, open-label, non-randomized Phase 2 trial was conducted, wherein enrolled were patients with relapsed myeloma that was refractory to therapy. Patients were treated with 1.3 mg of bortezomib per square meter of body surface area, twice weekly for two weeks, followed by one week without treatment, for up to eight cycles (24 weeks).
# Statistical analysis focused on the need to estimate response rates within specified limits of accuracy in order to determine if either of the two dose levels 1.0 or 1.3 mg/m^2/dose alone or in combination with dexamethasone are sufficiently efficacious to warrant further clinical study. This study was noncomparative in nature; therefore efficacy comparisons between the two doses of bortezomib were not performed. In addition, this study provided safety data that helped to characterize the potential toxicity of treatment at the two evaluated dose levels for up to eight cycles of therapy.
# Over 80% of the 78 patients completed 2 or more cycles of treatment, 62% completed 4 or more cycles, and 27% completed 8 cycles.
smiles,measurement,value
"CC(C)C[C@H](NC(=O)[C@H](Cc1ccccc1)NC(=O)c1cnccn1)B(O)O [bortezomib, N-pyrazinecarbonyl-L-phenylalanine-L-leucineboronic acid]",patients who completed 2 or more cycles of treatment,Over 80%
same,patients who completed 4 or more cycles,62%
same,patients who completed 8 cycles,27%
